Source: the supplement of paper PMC10689618
The other results are listed elsewhere or left out. Single values are uncertain, as repeats are few or missing.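 Primary human fetal astrocytes engulfed labelled rat cortical synaptosomes, measured as a red/green ratio corrected for calcein live-cell signal and scaled to the plate median. Toxicity meant calcein falling over 30%; decreased phagocytosis meant below 70% of median above 5 µM.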

test system: Human fetal astrocytes; test: loss of total cells relative to no-compound high-control median (toxicity); higher = more toxic (fewer cells); conditions: 5.56 µM; 24 h

| SMILES | loss of total cells |
| --- | --- |
| COCC1=C(C(=O)OC(C)OC(=O)OC(C)C)N2C(=O)[C@@H](NC(=O)/C(=N\OC)c3csc(N)n3)[C@H]2SC1 (stereo not given in full) | 0.6% |
| C[C@]12CCC(=O)C=C1CC[C@@H]1[C@@H]2[C@@H](O)C[C@@]2(C)[C@H]1CC[C@]2(O)C(=O)COP(=O)(O)O | -15.3% |
| CC1(C)[C@@H](OC(=O)CCC(=O)O)CC[C@]2(C)[C@H]3C(=O)C=C4[C@@H]5C[C@@](C)(C(=O)O)CC[C@]5(C)CC[C@@]4(C)[C@]3(C)CC[C@@H]12 | 17.7% |
| C/C=C/c1ccc(OC)cc1 | -5% |
| CCOc1cc(CC(=O)N[C@@H](CC(C)C)c2ccccc2N2CCCCC2)ccc1C(=O)O | -13.5% |
| CC(=O)c1ccc[nH]1 | -15.3% |
| O=C(Cn1ccnc1[N+](=O)[O-])NCCO | -20.5% |
| NC(=O)c1ncn([C@@H]2O[C@H](CO)[C@@H](O)[C@H]2O)c1N | -1.5% |
| COc1cc(/C=C/C(=O)CC(=O)/C=C/c2ccc(O)c(OC)c2)ccc1O | -5.1% |
| COc1cc(O)c(C(C)=O)c(O)c1 | -0.7% |
| CC(=O)O[C@@H]1CC[C@@]2(C)C(C[C@@H](OC(C)=O)[C@@]3(C)C4=CC(=O)O[C@@H](c5ccoc5)[C@]4(C)CCC23)C1(C)C (stereo partly drawn) [3alpha-ACETOXYDIHYDRODEOXYGEDUNIN] | 34.4% |
| CN(C)CCCOc1nn(Cc2ccccc2)c2ccccc12 | -6.1% |
| O=c1cc(-c2ccccc2)oc2cccc(O)c12 | -8.1% |
| C1CNCCN1 | 6.3% |
| OC[C@@H](O)[C@@H](O[C@@H]1O[C@H](CO)[C@@H](O)[C@H](O)[C@H]1O)[C@H](O)[C@@H](O)CO | -7.3% |
| CC(CCc1ccc(O)cc1)NCCc1ccc(O)c(O)c1 (stereo not given) | 6.8% |
| Oc1cccc(O)c1 | -12.5% |
| COc1cc(O)c(C)c(O)c1 | 14.5% |
| CCOC(=O)Nc1nc2ccccc2[nH]1 | 3.7% |
| COc1cc2c(cc1OC)-c1c(oc3cc(O)cc(O)c3c1=O)CO2 | 41.2% |
| Nc1cc(C(Cl)=C(Cl)Cl)c(S(N)(=O)=O)cc1S(N)(=O)=O | 1.9% |
| N[C@@H](C(=O)O)[C@@H](O)[C@H](O)[C@H](O)CO | -16.8% |
| C[C@@H]1CC[C@@]2(OC1)O[C@H]1C[C@H]3[C@@H]4CC=C5C[C@@H](O)CC[C@]5(C)[C@H]4CC[C@]3(C)[C@H]1[C@@H]2C | 11.6% |
| Cc1cc(-c2ccccc2)nnc1NCCN1CCOCC1 | -6.9% |
| COc1cc(-c2cc(=O)c3c(O)c(OC)c(OC)c(OC)c3o2)cc(OC)c1OC | 11.7% |

2 of the compounds above, tab-delimited.
SMILES	loss of total cells
COc1cc(O)c(C(C)=O)c(O)c1	-0.7%
COc1cc(O)c(C)c(O)c1	14.5%
